No constants are given. Whether binding was seen depends on the method and setting. Binding seen in cells or lysates may run through a third protein. A result given as binding can be weak or reduced; the word gives no strength.
Key:
Assay in all cases: co-IP; transfected HEK293T extracts (TBS, 1 mM DTT, 0.05% NP-40); anti-HA agarose, anti-FLAG M2 gel or anti-MKLN1; 2 hrs at 4°C; Western blot; mock-transfected cells or pre-immune IgG as control; in Fig 6E with or without cotransfected Flag-ANKS3 or Flag-ANKS3ΔC
HA-Bicc1 MutA (mouse) = HA-Bicc1 MutA (mouse) (UniProt Q99MQ1)
HA-Bicc1 MutC (mouse) = HA-Bicc1 MutC (mouse) (UniProt Q99MQ1)
HA-Bicc1 MutE (mouse) = HA-Bicc1 MutE (mouse) (UniProt Q99MQ1)
HA-Bicc1 MutF (mouse) = HA-Bicc1 MutF (mouse) (UniProt Q99MQ1)

Chains of the proteins cited; added tags and fusions are not shown. Lines headed by an entry give the natural chain unless they say otherwise; changes in a name come on top.
UniProt Q99MQ1: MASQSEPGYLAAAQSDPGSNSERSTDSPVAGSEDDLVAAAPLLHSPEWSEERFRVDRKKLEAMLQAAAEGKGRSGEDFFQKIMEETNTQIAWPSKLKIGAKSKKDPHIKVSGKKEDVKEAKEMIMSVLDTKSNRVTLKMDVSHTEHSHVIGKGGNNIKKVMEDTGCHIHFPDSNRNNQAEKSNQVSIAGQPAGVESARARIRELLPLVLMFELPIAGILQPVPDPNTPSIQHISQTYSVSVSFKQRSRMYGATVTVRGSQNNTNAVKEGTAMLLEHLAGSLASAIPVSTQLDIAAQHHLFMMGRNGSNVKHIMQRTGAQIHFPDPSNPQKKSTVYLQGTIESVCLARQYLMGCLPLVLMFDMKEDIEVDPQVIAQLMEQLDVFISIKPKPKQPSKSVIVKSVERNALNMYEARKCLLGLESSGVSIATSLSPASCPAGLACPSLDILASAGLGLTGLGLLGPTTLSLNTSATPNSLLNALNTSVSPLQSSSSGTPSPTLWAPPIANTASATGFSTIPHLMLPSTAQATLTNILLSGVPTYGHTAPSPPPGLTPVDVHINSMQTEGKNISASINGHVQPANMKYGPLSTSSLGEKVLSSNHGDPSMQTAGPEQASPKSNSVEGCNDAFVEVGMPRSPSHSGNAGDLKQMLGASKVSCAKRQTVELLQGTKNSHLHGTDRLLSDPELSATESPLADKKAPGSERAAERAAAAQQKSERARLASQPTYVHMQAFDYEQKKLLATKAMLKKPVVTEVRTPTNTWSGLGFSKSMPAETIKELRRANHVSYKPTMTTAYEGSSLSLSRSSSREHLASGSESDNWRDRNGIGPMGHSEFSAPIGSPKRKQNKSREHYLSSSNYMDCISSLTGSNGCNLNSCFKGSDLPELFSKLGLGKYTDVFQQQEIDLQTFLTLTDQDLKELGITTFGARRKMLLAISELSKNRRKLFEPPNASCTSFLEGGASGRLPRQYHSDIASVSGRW
UniProt Q8IUR7: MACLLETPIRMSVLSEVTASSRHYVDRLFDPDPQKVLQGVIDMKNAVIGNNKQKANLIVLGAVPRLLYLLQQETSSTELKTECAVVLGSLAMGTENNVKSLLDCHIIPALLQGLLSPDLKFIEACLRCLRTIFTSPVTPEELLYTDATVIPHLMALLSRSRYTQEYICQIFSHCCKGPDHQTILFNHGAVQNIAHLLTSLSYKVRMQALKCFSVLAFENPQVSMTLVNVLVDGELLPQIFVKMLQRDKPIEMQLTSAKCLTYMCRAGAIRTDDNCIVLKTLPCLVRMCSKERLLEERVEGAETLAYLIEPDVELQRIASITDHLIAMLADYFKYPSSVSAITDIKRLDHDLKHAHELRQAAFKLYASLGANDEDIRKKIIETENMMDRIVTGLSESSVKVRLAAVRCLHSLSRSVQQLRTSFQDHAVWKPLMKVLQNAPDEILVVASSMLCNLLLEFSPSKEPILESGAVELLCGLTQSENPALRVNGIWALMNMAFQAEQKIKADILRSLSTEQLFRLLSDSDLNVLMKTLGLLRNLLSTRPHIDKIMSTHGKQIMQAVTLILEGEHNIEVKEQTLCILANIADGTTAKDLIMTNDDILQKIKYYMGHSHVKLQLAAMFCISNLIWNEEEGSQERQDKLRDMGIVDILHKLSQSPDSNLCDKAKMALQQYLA
UniProt Q9H7D7: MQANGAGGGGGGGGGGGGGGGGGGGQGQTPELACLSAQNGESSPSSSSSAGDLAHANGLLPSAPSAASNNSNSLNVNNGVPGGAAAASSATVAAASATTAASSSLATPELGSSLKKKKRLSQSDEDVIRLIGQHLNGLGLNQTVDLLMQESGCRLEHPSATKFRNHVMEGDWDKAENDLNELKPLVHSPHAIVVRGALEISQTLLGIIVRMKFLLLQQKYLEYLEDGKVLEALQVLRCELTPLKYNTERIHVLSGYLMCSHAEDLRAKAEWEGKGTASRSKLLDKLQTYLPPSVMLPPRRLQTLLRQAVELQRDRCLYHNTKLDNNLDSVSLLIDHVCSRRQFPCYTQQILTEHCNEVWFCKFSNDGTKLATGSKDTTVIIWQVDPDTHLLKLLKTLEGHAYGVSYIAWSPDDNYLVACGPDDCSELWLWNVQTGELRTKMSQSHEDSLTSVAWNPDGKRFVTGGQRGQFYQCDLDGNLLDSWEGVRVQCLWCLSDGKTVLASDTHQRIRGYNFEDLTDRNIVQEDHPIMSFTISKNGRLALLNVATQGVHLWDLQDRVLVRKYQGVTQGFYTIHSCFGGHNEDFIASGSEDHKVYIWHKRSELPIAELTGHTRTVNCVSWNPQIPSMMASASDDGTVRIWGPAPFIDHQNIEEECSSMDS

| Substance | binding (HA-Bicc1 MutA (mouse)) | binding (HA-Bicc1 MutC (mouse)) | binding (HA-Bicc1 MutE (mouse)) | binding (HA-Bicc1 MutF (mouse)) |
| --- | --- | --- | --- | --- |
| Armadillo repeat containing 8 (ARMC8), endogenous in HEK293 cells (from UniProt Q8IUR7 1-673) | binds | binds | binds | binds |
| WD repeat-containing protein 26 (WDR26), endogenous in HEK293 cells (from UniProt Q9H7D7 1-661) | binds | binds weakly | binds weakly | binds |

Reference: paper PMC6056059
